Measured values: paper PMC4666613
Results are given in words; binding and its absence hold for the method and conditions named. In cells and extracts the contact can be indirect. Some entries that bind do so weakly or less than the wild type. Where a sequence is shown, tags or fusion partners need not be part of it.

Sequences of proteins named here, by UniProt entry; tags and fusion partners are left off.
UniProt P10243: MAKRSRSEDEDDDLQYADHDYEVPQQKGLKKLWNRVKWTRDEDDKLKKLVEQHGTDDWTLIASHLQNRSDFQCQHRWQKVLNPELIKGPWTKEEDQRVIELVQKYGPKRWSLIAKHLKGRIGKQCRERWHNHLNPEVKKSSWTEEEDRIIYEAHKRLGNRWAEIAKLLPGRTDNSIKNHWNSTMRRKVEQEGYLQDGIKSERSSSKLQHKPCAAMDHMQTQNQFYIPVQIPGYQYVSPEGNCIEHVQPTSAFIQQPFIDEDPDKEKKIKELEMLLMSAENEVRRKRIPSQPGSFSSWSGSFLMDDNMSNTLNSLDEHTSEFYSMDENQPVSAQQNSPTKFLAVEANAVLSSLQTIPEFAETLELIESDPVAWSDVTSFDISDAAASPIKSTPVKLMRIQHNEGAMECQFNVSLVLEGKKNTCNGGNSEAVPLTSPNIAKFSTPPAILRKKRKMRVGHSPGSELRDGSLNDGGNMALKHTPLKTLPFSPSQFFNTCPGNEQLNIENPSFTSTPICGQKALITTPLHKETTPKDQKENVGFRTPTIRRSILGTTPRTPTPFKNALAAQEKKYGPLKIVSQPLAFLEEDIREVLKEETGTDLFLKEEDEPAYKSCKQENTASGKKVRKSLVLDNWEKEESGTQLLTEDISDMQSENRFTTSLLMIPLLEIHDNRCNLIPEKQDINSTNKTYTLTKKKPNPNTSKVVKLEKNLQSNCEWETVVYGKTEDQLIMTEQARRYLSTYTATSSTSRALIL

Biological target: FLAG-tagged A-MYB (UniProt P10243)
Assay: co-IP; FLAG-tagged A-MYB and GFP-tagged TRIM33 co-expressed in HEK293T cells; Nuclear Complex Co-IP Kit (Active Motif); lysates immunoprecipitated with anti-FLAG beads or anti-IgG beads as control; Western blot with anti-GFP and anti-FLAG

B1: GFP-tagged TRIM33 (protein, UniProt Q9UPN9 1-1127)
chain: MAENKGGGEAESGGGGSGSAPVTAGAAGPAAQEAEPPLTAVLVEEEEEEGGRAGAEGGAAGPDDGGVAAASSGSAQAASSPAASVGTGVAGGAVSTPAPAPASAPAPGPSAGPPPGPPASLLDTCAVCQQSLQSRREAEPKLLPCLHSFCLRCLPEPERQLSVPIPGGSNGDIQQVGVIRCPVCRQECRQIDLVDNYFVKDTSEAPSSSDEKSEQVCTSCEDNASAVGFCVECGEWLCKTCIEAHQRVKFTKDHLIRKKEDVSESVGASGQRPVFCPVHKQEQLKLFCETCDRLTCRDCQLLEHKEHRYQFLEEAFQNQKGAIENLLAKLLEKKNYVHFAATQVQNRIKEVNETNKRVEQEIKVAIFTLINEINKKGKSLLQQLENVTKERQMKLLQQQNDITGLSRQVKHVMNFTNWAIASGSSTALLYSKRLITFQLRHILKARCDPVPAANGAIRFHCDPTFWAKNVVNLGNLVIESKPAPGYTPNVVVGQVPPGTNHISKTPGQINLAQLRLQHMQQQVYAQKHQQLQQMRMQQPPAPVPTTTTTTQQHPRQAAPQMLQQQPPRLISVQTMQRGNMNCGAFQAHQMRLAQNAARIPGIPRHSGPQYSMMQPHLQRQHSNPGHAGPFPVVSVHNTTINPTSPTTATMANANRGPTSPSVTAIELIPSVTNPENLPSLPDIPPIQLEDAGSSSLDNLLSRYISGSHLPPQPTSTMNPSPGPSALSPGSSGLSNSHTPVRPPSTSSTGSRGSCGSSGRTAEKTSLSFKSDQVKVKQEPGTEDEICSFSGGVKQEKTEDGRRSACMLSSPESSLTPPLSTNLHLESELDALASLENHVKIEPADMNESCKQSGLSSLVNGKSPIRSLMHRSARIGGDGNNKDDDPNEDWCAVCQNGGDLLCCEKCPKVFHLTCHVPTLLSFPSGDWICTFCRDIGKPEVEYDCDNLQHSKKGKTAQGLSPVDQRKCERLLLYLYCHELSIEFQEPVPASIPNYYKIIKKPMDLSTVKKKLQKKHSQHYQIPDDFVADVRLIFKNCERFNEMMKVVQVYADTQEINLKADSEVAQAGKAVALYFEDKLTEIYSDRTFAPLPEFEQEEDDGEVTEDSDEDFIQPRRKRLKSDERPVHIK
- binding: binds
